{"source": "the supplement of paper PMC4604168 (melanoma cell lines)", "note": "Some of the results follow. Repeats are few or missing, and single values can be far off.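 Imaging used 1,536-well plates; nuclei positive for cleaved PARP by antibody were divided by total DNA-stained nuclei to yield the apoptosis fraction. Doses for screening kept most cells viable, and cell lines differ markedly in resting and induced cleaved-PARP levels.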", "data": [{"test_system": "MeWo", "assay": "cleaved PARP positive nuclei fraction relative to DMSO control; melanoma cells; higher = more apoptosis", "settings": "library dose: low library concentration; 72 h", "units": {"cleaved PARP positive nuclei fraction": "%"}, "values": [{"smiles": "CC1(C)CCC(c2ccc(Cl)cc2)=C(CN2CCN(c3ccc(C(=O)NS(=O)(=O)c4ccc(N[C@H](CCN5CCOCC5)CSc5ccccc5)c(S(=O)(=O)C(F)(F)F)c4)cc3)CC2)C1", "note": "+ Cc1cc([N+](=O)[O-])ccc1NS(=O)(=O)c1cc(Cl)ccc1Cl [FH535] (first compound 0.4 µM, partner dose 1 µM)", "cleaved PARP positive nuclei fraction": 447}, {"smiles": "NC1(c2ccc(-c3nc4ccn5c(=O)[nH]nc5c4cc3-c3ccccc3)cc2)CCC1", "note": "+ CC(C)(C)c1cnc(CSc2cnc(NC(=O)C3CCNCC3)s2)o1 [SNS-032] (first compound 0.4 µM, partner dose 0.01 µM)", "cleaved PARP positive nuclei fraction": 75.9}, {"smiles": "CN(c1ncccc1CNc1nc(Nc2ccc3c(c2)CC(=O)N3)ncc1C(F)(F)F)S(C)(=O)=O", "note": "+ O=C(O)C(=O)Nc1sc2c(c1C(=O)O)CCNC2 [TCS401] (first compound 0.08 µM, partner dose 1.66667 µM)", "cleaved PARP positive nuclei fraction": 71.5}, {"smiles": "NC1(c2ccc(-c3nc4ccn5c(=O)[nH]nc5c4cc3-c3ccccc3)cc2)CCC1", "note": "+ COc1cc2c(Oc3ccc4[nH]c(C)cc4c3F)ncnc2cc1OCCCN1CCCC1 [cediranib] (first compound 0.4 µM, partner dose 0.4 µM)", "cleaved PARP positive nuclei fraction": 63.4}, {"smiles": "CC1(C)CCC(c2ccc(Cl)cc2)=C(CN2CCN(c3ccc(C(=O)NS(=O)(=O)c4ccc(N[C@H](CCN5CCOCC5)CSc5ccccc5)c(S(=O)(=O)C(F)(F)F)c4)cc3)CC2)C1", "note": "+ C=CCn1c(=O)c2cnc(Nc3ccc(N4CCN(C)CC4)cc3)nc2n1-c1cccc(C(C)(C)O)n1 [MK1775] (first compound 0.4 µM, partner dose 0.02 µM)", "cleaved PARP positive nuclei fraction": 564}, {"smiles": "NC1(c2ccc(-c3nc4ccn5c(=O)[nH]nc5c4cc3-c3ccccc3)cc2)CCC1", "note": "+ COc1ccc(-c2ccc3c(N4CCOCC4)nc(N4C[C@@H](C)O[C@@H](C)C4)nc3n2)cc1CO [KU0063794] (first compound 0.4 µM, partner dose 0.02 µM)", "cleaved PARP positive nuclei fraction": 62.7}, {"smiles": "CS(=O)(=O)c1ccc(C(=O)Nc2ccc(Cl)c(-c3ccccn3)c2)c(Cl)c1", "note": "[vismodegib] + COC(=O)c1sccc1S(=O)(=O)Nc1ccc(Nc2ccccc2)cc1OC [GSK0660] (first compound 1 µM, partner dose 1 µM)", "cleaved PARP positive nuclei fraction": 110}, {"smiles": "NC(=O)c1ccc(N(C(N)=O)c2c(F)cccc2F)nc1-c1ccc(F)cc1F", "note": "+ O=C(CCCCCCC(=O)Nc1ccccc1)NO [vorinostat] (first compound 0.4 µM, partner dose 0.08 µM)", "cleaved PARP positive nuclei fraction": 119}, {"smiles": "Cn1sc(=O)n(Cc2ccccc2)c1=O", "note": "+ O=c1cc(-c2cccc3c2Sc2ccccc2S3)oc(N2CCOCC2)c1 [KU55933] (first compound 0.4 µM, partner dose 1 µM)", "cleaved PARP positive nuclei fraction": 121}, {"smiles": "CCCCCCCCc1ccc(CCC(N)(CO)CO)cc1", "note": "[fingolimod] + COc1cc2ncnc(Nc3ccc(Oc4ccccc4)cc3)c2cc1OC [SrcI1] (first compound 2 µM, partner dose 2 µM)", "cleaved PARP positive nuclei fraction": 34.9}, {"smiles": "NC1(c2ccc(-c3nc4ccn5c(=O)[nH]nc5c4cc3-c3ccccc3)cc2)CCC1", "note": "+ Cc1ccc(NC(=O)c2cccc(N(C)C)c2)cc1NC(=O)c1ccc(O)cc1 [ZM336372] (first compound 0.4 µM, partner dose 2 µM)", "cleaved PARP positive nuclei fraction": 33.5}, {"smiles": "COc1ccc(C2=N[C@@H](c3ccc(Cl)cc3)[C@@H](c3ccc(Cl)cc3)N2C(=O)N2CCNC(=O)C2)c(OC(C)C)c1", "note": "[Nutlin-3] + C[C@@H]1CCN(C(=O)CC#N)C[C@@H]1N(C)c1ncnc2[nH]ccc12 [CP690550] (first compound 0.1 µM, partner dose 1 µM)", "cleaved PARP positive nuclei fraction": 48}, {"smiles": "CS(=O)(=O)c1ccc(C(=O)Nc2ccc(Cl)c(-c3ccccn3)c2)c(Cl)c1", "note": "[vismodegib] + CC(C)(C)c1cnc(CSc2cnc(NC(=O)C3CCNCC3)s2)o1 [SNS-032] (first compound 1 µM, partner dose 0.01 µM)", "cleaved PARP positive nuclei fraction": 135}, {"smiles": "NC1(c2ccc(-c3nc4ccn5c(=O)[nH]nc5c4cc3-c3ccccc3)cc2)CCC1", "note": "+ Cn1cc(/C=C2\\C(=O)Nc3cccnc32)c2ccccc21 [GW441756] (first compound 0.4 µM, partner dose 0.4 µM)", "cleaved PARP positive nuclei fraction": 139}, {"smiles": "Cn1cnc2c(F)c(Nc3ccc(Br)cc3Cl)c(C(=O)NOCCO)cc21", "note": "[selumetinib] + O=C(Nc1cccc(Cl)c1)Nc1ncc(CCNc2ncnc3ccsc23)s1 [SNS314] (first compound 0.015 µM, partner dose 0.0008 µM)", "cleaved PARP positive nuclei fraction": 302}, {"smiles": "CC1(C)CCC(c2ccc(Cl)cc2)=C(CN2CCN(c3ccc(C(=O)NS(=O)(=O)c4ccc(N[C@H](CCN5CCOCC5)CSc5ccccc5)c(S(=O)(=O)C(F)(F)F)c4)cc3)CC2)C1", "note": "+ CCN(CC)CCCCNc1ncc2cc(-c3cc(OC)cc(OC)c3)c(NC(=O)NC(C)(C)C)nc2n1 [PD173074] (first compound 0.4 µM, partner dose 0.1 µM)", "cleaved PARP positive nuclei fraction": 596}, {"smiles": "C[C@]1(O)C[C@@H](c2nc(-c3ccc4ccc(-c5ccccc5)nc4c3)c3c(N)nccn32)C1", "note": "+ COc1cc2ncnc(Nc3ccc(Oc4ccccc4)cc3)c2cc1OC [SrcI1] (first compound 0.4 µM, partner dose 2 µM)", "cleaved PARP positive nuclei fraction": 163}, {"smiles": "CC1(C)CCC(c2ccc(Cl)cc2)=C(CN2CCN(c3ccc(C(=O)NS(=O)(=O)c4ccc(N[C@H](CCN5CCOCC5)CSc5ccccc5)c(S(=O)(=O)C(F)(F)F)c4)cc3)CC2)C1", "note": "+ CCc1ccc(CCOc2ccc(CC3SC(=O)NC3=O)cc2)nc1 [pioglitazone] (first compound 0.4 µM, partner dose 2 µM)", "cleaved PARP positive nuclei fraction": 191}, {"smiles": "C[C@@H](N)c1ccc(C(=O)Nc2ccnc3[nH]ccc23)cc1", "note": "+ CCN(CC)CCCCNc1ncc2cc(-c3cc(OC)cc(OC)c3)c(NC(=O)NC(C)(C)C)nc2n1 [PD173074] (first compound 0.4 µM, partner dose 0.1 µM)", "cleaved PARP positive nuclei fraction": 197}, {"smiles": "CCN(CC)CCNC(=O)c1c(C)[nH]c(/C=C2\\C(=O)Nc3ccc(F)cc32)c1C", "note": "[sunitinib] + Cc1cc(N2CCOCC2)cc2[nH]c(-c3c(NC[C@@H](O)c4cccc(Cl)c4)cc[nH]c3=O)nc12 [BMS536924] (first compound 0.4 µM, partner dose 0.2 µM)", "cleaved PARP positive nuclei fraction": 136}, {"smiles": "NC(=O)c1ccc(N(C(N)=O)c2c(F)cccc2F)nc1-c1ccc(F)cc1F", "note": "+ O=C(Nc1cccc(Cl)c1)Nc1ncc(CCNc2ncnc3ccsc23)s1 [SNS314] (first compound 0.4 µM, partner dose 0.0008 µM)", "cleaved PARP positive nuclei fraction": 55.2}, {"smiles": "Cn1cnc2c(F)c(Nc3ccc(Br)cc3Cl)c(C(=O)NOCCO)cc21", "note": "[selumetinib] + Cc1ccc(NC(=O)c2cccc(N(C)C)c2)cc1NC(=O)c1ccc(O)cc1 [ZM336372] (first compound 0.015 µM, partner dose 2 µM)", "cleaved PARP positive nuclei fraction": 114}, {"smiles": "CS(=O)(=O)c1ccc(C(=O)Nc2ccc(Cl)c(-c3ccccn3)c2)c(Cl)c1", "note": "[vismodegib] + NC(=O)Nc1cc(-c2cccc(F)c2)sc1C(=O)N[C@H]1CCCNC1 [AZD7762] (first compound 1 µM, partner dose 0.02 µM)", "cleaved PARP positive nuclei fraction": 175}, {"smiles": "Cn1cnc2c(F)c(Nc3ccc(Br)cc3Cl)c(C(=O)NOCCO)cc21", "note": "[selumetinib] + Cc1cc(N2CCOCC2)cc2[nH]c(-c3c(NC[C@@H](O)c4cccc(Cl)c4)cc[nH]c3=O)nc12 [BMS536924] (first compound 0.015 µM, partner dose 0.2 µM)", "cleaved PARP positive nuclei fraction": 250}, {"smiles": "Cn1cnc2c(F)c(Nc3ccc(Br)cc3Cl)c(C(=O)NOCCO)cc21", "note": "[selumetinib] + Oc1nc(-c2ccc(C(F)(F)F)cc2)nc2c1CSCC2 [XAV939] (first compound 0.015 µM, partner dose 2 µM)", "cleaved PARP positive nuclei fraction": 131}, {"smiles": "COc1ccc(C2=N[C@@H](c3ccc(Cl)cc3)[C@@H](c3ccc(Cl)cc3)N2C(=O)N2CCNC(=O)C2)c(OC(C)C)c1", "note": "[Nutlin-3] + Oc1nc(-c2ccc(C(F)(F)F)cc2)nc2c1CSCC2 [XAV939] (first compound 0.1 µM, partner dose 2 µM)", "cleaved PARP positive nuclei fraction": 47.3}, {"smiles": "NC(=O)c1ccc(N(C(N)=O)c2c(F)cccc2F)nc1-c1ccc(F)cc1F", "note": "+ COc1cc2c(Oc3ccc4[nH]c(C)cc4c3F)ncnc2cc1OCCCN1CCCC1 [cediranib] (first compound 0.4 µM, partner dose 0.4 µM)", "cleaved PARP positive nuclei fraction": 49.9}, {"smiles": "Cn1cnc2c(F)c(Nc3ccc(Br)cc3Cl)c(C(=O)NOCCO)cc21", "note": "[selumetinib] + CCN(CC)CCCCNc1ncc2cc(-c3cc(OC)cc(OC)c3)c(NC(=O)NC(C)(C)C)nc2n1 [PD173074] (first compound 0.015 µM, partner dose 0.1 µM)", "cleaved PARP positive nuclei fraction": 175}, {"smiles": "CN(c1ncccc1CNc1nc(Nc2ccc3c(c2)CC(=O)N3)ncc1C(F)(F)F)S(C)(=O)=O", "note": "+ Oc1nc(-c2ccc(C(F)(F)F)cc2)nc2c1CSCC2 [XAV939] (first compound 0.08 µM, partner dose 2 µM)", "cleaved PARP positive nuclei fraction": 172}, {"smiles": "Cn1cnc2c(F)c(Nc3ccc(Br)cc3Cl)c(C(=O)NOCCO)cc21", "note": "[selumetinib] + COc1ccc(COc2ccc(Cc3cnc(N)nc3N)cc2OC)cc1 [GW2580] (first compound 0.015 µM, partner dose 1 µM)", "cleaved PARP positive nuclei fraction": 122}, {"smiles": "NC(=O)c1ccc(N(C(N)=O)c2c(F)cccc2F)nc1-c1ccc(F)cc1F", "note": "+ O=C(O)c1ccc(-c2c[nH]c3ncc(-c4ccccc4)cc23)cc1C1CCCC1 [GSK650394] (first compound 0.4 µM, partner dose 0.16 µM)", "cleaved PARP positive nuclei fraction": 49.5}]}]}
